Results published in patent US20110172301A1, “Use of anti-oxidant compounds for muscle recovery” (DSM IP ASSETS B.V., priority 2004, published 2011).
For at least one compound, name, drawing or mass did not settle the structure.

Legend:
diaphragm muscle strips = experiment: Organ bath experiments: force of diaphragm strips after H2O2 incubation; design: species or system Male Lewis rats
Source text: Male Lewis rats (age between 12 and 14 weeks old) were used. After decapitation, the diaphragm was rapidly excised, and small strips (around 2 mm width and 1 cm long) were cut and subsequently mounted in thermostated organ baths, containing Krebs buffer gassed with a mixture of 95% O2 and 5% CO2, pH 7.4. Each diaphragm strip was connected vertically to an isometric transducer. The composition of the Krebs buffer was (mM): NaCl (117.5), KCl (5.6), MgSO4 (1.18), CaCl2 (2.5), NaHPO4 (1.28), NaHCO3 (25) and glucose (5.5). During the experiment, the buffer was changed every 15 minutes. Field stimulation was created along the entire length of each muscle strip with platinum electrodes. At the beginning of the experiment, the strips were washed during 45 minutes at room temperature to minimize temperature dependent deterioration. Thereafter, the water bath was turned on at 37° C. (15 minutes before the start of the experiments). Each strip was first adjusted to its optimal length (Lo) using twitch contractions (1 Hz). The pulse duration was always 10 ms. First the Pt (twitch tension at a stimulation of 1 Hz) and Po (maximal specific tension at a stimulation of 100 Hz, 250 ms duration) were determined. Thereafter, the response of the diaphragm muscle strips to increasing stimulus frequencies was assessed at Lo by the application of 10, 20, 33, 50 and 100 Hz-pulses applied in 250 ms trains. A 2-min recovery period was used between contractions. At the completion of the force-frequency protocol, a fatigue protocol was applied. The strips were stimulated for 6 minutes at 5 Hz. After this stimulation protocol, hydroxytyrosol (HT) or control (vehicle, ethanol) was incubated for 5 minutes. Subsequently, hydrogen peroxide (H2O2) or control (MilliQ) was incubated for 10 minutes. After that were again determined: Pt, Po, force-frequency and fatigue.

[1] = ONOOH scavenging (protection against ONOOH induced DHR-123 oxidation); type: biochemical; conditions: 50% inhibition of oxidation of DHR-123; 5 μM DHR-123, 0.7 μM ONOOH, pH 7.4, 37° C., n = 3; read-out: ONOO− scavenging activity, IC50 ± SEM
Procedure: The protection against ONOOH induced DHR-123 oxidation of the compounds was measured as described by Kooy et al (Peroxynitrite-mediated oxidation of dihydrorhodamine 123. Free Radic Biol Med, 16; 149-56). In short, 5 μM DHR-123 and various concentrations of a scavenger were incubated in 100 mM sodium phosphate buffer (pH 7.4) at 37° C. Subsequently, ONOOH was added by pipetting a 10 μl aliquot into the tube while rapid vortexing, reaching a final concentration of 0.7 μM. Fluorescence measurements were performed with excitation and emission wavelengths of respectively 500 and 536 nm. The effects are expressed as the concentration of the scavenger giving 50% inhibition of the oxidation of DHR-123 (IC50).

[2] = O2•- scavenging (xanthine/xanthine oxidase, NBT reduction); type: biochemical; conditions: 50% decrease in the reduction of NBT; xanthine 150 μM, XO 5.5 mU/ml, pH 7.8, 37° C., n = 3; read-out: O2•− scavenging activity, IC50 ± SEM
Procedure: O2•- were generated by the reaction of xanthine (150 μM) and xanthine oxidase (XO) (5.5 mU/ml) in 50 mM potassium phosphate buffer (pH 7.8). O2•-radicals were detected by nitroblue tetrazolium (NBT, 50 μM). NBT undergoes reduction by O2•- to its formazan. The rate of this reduction was monitored spectrophotometrically at 560 nm during 2 minutes. Various concentrations of a scavenger were added and incubated at 37° C. The reaction was started by the addition of XO. The O2•-scavenging potential is expressed as the concentration of the scavenger giving a 50% decrease in the reduction of NBT (IC50).
To adjust for a possible inhibitory effect of the scavenger on the activity of XO, the highest concentration of the scavenger was incubated at 37° C. and subsequently the rate of the urate formation was measured at 293 nm during 2 minutes.

For `OCCc1ccc(O)c(O)c1` [Hydroxytyrosol], the “effect on muscle function without H2O2 incubation” value (diaphragm muscle strips; 300 μM HT, no H2O2, FIG. 2) was “preserves muscle function”, the “protective effect against H2O2 mediated muscle damage” value (diaphragm muscle strips; all stimulation frequencies (10, 20, 33, 50 and 100 Hz), FIG. 2) was “protects against H2O2 mediated muscle damage at all stimulation frequencies” and the “protection against the decline in force induced by H2O2, dose dependence” value (diaphragm muscle strips; stimulation frequency 50 Hz, 1 mM H2O2, FIG. 3) was “dose-dependently protects against the decline in force induced by H2O2”. For the same compound, the IC50 [1] was 3.6 ± 0.2 µM and the IC50 [2] was 2.3 ± 0.3 µM.
Work on `C/C=C1/[C@H](O[C@@H]2O[C@H](CO)[C@@H](O)[C@H](O)[C@H]2O)OC=C(C(=O)OC)[C@H]1CC(=O)OCCc1ccc(O)c(O)c1` [Oleuropein] yielded an IC50 [1] of 2.3 ± 0.5 µM and an IC50 [2] of 6 ± 0.5 µM.
